The experiment addresses Flag-TLR4 (UniProt O00206). Kind of experiment: affinity purification with mass spectrometry; lysate of OVCAR-3 cells expressing Flag-TLR4 (50 mM Tris-HCl pH 7.4, 150 mM NaCl, 0.2 mM EDTA, 0.3% NP-40) on anti-FLAG beads overnight at 4 °C; eluted with Flag peptide; SDS-PAGE, silver staining; differential bands analysed by mass spectrometry.

By UniProt entry, the sequences of proteins in these tests, tags left out. Residues count along the entry.
UniProt O00206, residues 24-839: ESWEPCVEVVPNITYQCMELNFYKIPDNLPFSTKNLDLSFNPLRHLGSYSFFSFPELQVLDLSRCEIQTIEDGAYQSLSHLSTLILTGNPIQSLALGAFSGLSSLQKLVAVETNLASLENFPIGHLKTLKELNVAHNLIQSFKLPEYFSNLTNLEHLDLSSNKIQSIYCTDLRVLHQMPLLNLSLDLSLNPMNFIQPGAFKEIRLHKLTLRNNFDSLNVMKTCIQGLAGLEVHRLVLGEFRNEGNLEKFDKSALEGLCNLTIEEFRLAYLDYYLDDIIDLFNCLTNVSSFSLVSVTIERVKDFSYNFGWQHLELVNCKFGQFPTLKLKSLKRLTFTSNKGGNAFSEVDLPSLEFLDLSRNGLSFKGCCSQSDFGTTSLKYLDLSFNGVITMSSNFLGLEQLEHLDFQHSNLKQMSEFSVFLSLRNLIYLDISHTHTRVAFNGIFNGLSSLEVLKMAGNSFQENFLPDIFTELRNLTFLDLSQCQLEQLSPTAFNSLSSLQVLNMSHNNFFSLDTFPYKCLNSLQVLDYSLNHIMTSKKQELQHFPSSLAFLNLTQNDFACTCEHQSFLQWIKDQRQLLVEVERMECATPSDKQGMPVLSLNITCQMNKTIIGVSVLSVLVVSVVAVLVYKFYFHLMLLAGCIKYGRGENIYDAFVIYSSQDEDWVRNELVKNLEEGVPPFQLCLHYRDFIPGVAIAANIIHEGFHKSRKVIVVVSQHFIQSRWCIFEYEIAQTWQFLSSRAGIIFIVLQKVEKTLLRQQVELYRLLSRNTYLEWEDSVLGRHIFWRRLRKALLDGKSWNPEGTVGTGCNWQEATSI
UniProt Q13114: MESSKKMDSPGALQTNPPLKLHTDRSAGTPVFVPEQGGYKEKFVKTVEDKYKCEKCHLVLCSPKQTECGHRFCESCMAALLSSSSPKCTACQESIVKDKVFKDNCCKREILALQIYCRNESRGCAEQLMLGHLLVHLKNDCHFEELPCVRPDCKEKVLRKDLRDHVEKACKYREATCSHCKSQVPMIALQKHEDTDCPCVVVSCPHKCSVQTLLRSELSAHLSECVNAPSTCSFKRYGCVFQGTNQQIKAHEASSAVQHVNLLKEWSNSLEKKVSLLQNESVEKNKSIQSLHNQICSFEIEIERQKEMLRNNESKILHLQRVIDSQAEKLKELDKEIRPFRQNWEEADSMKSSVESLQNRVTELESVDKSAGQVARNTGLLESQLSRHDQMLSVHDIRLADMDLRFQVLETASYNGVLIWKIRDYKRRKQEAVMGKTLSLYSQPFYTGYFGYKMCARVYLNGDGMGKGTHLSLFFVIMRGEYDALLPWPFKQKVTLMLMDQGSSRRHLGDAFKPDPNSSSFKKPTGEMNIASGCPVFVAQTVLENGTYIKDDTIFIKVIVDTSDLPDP

Results are given in words; binding and its absence hold for the method and conditions named. In cells and extracts the contact can be indirect. Here binding means that the protein was enriched with, or labelled near, the bait; the list need not be complete.

Turning to “TNF receptor associated factor 3 (from UniProt Q13114 1-568)”, the binding result is “binds”.

The values above are taken from PMC7415812.
